Drawing on patent publication US20180193475A1 (Novartis, published 2018), this text covers binding for two molecules.

Sequences of proteins named here, by UniProt entry; tags and fusion partners are left off. Residues count along the entry.
UniProt P10721, residues 26-976: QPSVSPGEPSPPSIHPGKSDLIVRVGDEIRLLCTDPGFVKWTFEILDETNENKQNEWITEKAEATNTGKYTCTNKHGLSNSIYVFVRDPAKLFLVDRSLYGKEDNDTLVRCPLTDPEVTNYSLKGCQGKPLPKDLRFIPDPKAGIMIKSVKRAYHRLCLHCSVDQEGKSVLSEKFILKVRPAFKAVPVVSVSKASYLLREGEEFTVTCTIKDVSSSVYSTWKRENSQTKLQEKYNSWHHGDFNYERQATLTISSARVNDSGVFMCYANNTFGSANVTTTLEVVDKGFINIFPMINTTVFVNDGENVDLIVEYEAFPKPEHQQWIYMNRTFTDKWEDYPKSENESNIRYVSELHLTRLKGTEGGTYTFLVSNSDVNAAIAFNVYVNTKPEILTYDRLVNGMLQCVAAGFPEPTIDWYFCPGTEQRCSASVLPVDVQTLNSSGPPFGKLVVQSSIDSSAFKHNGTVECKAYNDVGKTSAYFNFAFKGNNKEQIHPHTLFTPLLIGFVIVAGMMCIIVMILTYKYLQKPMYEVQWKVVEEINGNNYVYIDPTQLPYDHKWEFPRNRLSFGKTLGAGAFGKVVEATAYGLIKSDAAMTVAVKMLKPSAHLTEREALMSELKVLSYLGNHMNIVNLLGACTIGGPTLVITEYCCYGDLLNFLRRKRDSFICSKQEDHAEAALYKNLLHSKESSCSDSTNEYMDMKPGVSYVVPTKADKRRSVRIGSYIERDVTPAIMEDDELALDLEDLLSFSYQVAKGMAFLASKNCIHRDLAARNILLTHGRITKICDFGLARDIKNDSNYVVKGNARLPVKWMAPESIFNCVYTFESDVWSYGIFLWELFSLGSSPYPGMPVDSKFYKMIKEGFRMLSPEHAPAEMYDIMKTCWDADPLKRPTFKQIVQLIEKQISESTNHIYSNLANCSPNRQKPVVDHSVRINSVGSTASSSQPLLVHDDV

For experiment [1], the target named is cKIT on the surface of GIST-T1 cells (UniProt P10721). Kind of experiment: flow cytometry on GIST-T1 cells, 10 ug/ml antibody, temperature shift. On the technique in general: Flow cytometry measures light scatter and fluorescence of single cells or particles in a stream.
Experiment [2] addresses T1, Mouse cKIT ECD, C-terminal 6x His (Sino Biological Inc, catalog number 50530-M08H) (mouse) (UniProt P05532).
T1 sequence (looked up): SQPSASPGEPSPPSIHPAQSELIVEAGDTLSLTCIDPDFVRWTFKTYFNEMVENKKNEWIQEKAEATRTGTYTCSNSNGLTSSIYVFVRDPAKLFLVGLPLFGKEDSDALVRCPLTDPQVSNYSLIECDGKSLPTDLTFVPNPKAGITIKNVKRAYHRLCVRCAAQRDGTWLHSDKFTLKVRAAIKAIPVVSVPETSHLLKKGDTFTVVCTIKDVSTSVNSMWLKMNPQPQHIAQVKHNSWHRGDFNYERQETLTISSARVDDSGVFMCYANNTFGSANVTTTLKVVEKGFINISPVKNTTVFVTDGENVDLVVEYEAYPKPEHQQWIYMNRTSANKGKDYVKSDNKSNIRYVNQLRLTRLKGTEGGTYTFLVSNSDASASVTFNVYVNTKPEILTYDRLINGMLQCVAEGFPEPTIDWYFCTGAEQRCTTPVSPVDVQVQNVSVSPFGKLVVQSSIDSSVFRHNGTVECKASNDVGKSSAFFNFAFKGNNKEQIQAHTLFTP
The experiment can be described thus: SPR (Biacore 2000). For orientation: Surface plasmon resonance follows binding to a sensor surface in real time, without labels.

No constants are given. Whether binding was seen depends on the method and setting. Some results given as binding are weak or reduced against the parent protein; the word gives no strength. For part of these data: Sequences can lack the tags named with a protein.

B1: 20376 (antibody, human IgG1, lambda, V domains shown)
VH: QVQLVQSGAEVKKPGSSVKVSCKASGGTFSSYAISWVRQAPGQGLEWMGGIIPMSGRTTYAQKFQGRVTITADESTSTAYMELSSLRSEDTAVYYCARDYGPEAPDYGQSTSYFWYYAFDPWGQGTLVTVSS
VL: DIELTQPPSVSVSPGQTASITCSGDNIPSYFVHWYQQKPGQAPVLVIYDDNDRPSGIPERFSGSNSGNTATLTISGTQAEDEADYYCSSWDQDTVVFGGGTKLTVLG
For B1, the binding entry in experiment [1] and in experiment [2] was “binds” in each case.

B2: NEG085 (antibody, human IgG1, kappa, V domains shown)
VH: EVQLVESGGGLVQPGGSLRLSCAASGFAFSGYYMAWVRQAPGKGLEWVANINYPGSSTYYLDSVKGRFTISRDNAKNSLYLQMNSLRAEDTAVYYCARGDYYGTTYWYFDVWGQGTTVTVSS
VL: DIQMTQSPSSLSASVGDRVTITCRASQSISSYLNWYQQKPGKAPKLLIYYTSRLQSGVPSRFSGSGSGTDFTLTISSLQPEDFATYYCQQGRRLWSFGGGTKVEIKR
Take B2: the binding result in experiment [1] was “binds”.
